Measurements as given in PMC11667820.
Results are given in words; binding and its absence hold for the method and conditions named. In cells and extracts the contact can be indirect. Binding calls can cover weak binding; strength is not graded here.

T1: vinexin-β (human (endogenous in FaDu and SAS)) (UniProt O60504)
T1 sequence: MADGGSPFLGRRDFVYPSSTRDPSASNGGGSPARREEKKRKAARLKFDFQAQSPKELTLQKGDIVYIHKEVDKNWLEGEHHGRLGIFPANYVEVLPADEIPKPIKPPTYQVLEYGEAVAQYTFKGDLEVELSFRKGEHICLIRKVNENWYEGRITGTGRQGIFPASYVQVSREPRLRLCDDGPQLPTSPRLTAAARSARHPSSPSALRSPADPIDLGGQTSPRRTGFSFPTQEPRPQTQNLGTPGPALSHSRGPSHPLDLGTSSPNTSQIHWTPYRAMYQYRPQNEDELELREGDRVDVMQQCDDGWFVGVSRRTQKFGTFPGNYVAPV


Experiments:
[1] = molecular target: T1, vinexin-β (human (endogenous in FaDu and SAS)); assay: co-IP; anti-vinexin immunoprecipitation from lysates of SAS cells expressing RARγ4 constructs; lysis buffer 20 mM Tris-HCl pH 7.5, 150 mM NaCl, 1 mM Na2EDTA, 1 mM EGTA, 0.2% Triton, 1 mM PMSF; 4 °C overnight; protein A/G-agarose; blot for rhotekin and RARγ4
[2] = molecular target: Flag-tagged RARγ4-S299A (phospho-defective mutant) (human); assay: co-IP; anti-Flag immunoprecipitation from lysates of FaDu and SAS cells expressing Flag-RARγ4 or its mutants; lysis buffer 20 mM Tris-HCl pH 7.5, 150 mM NaCl, 1 mM Na2EDTA, 1 mM EGTA, 0.2% Triton, 1 mM PMSF; 4 °C overnight; protein A/G-agarose; blot for vinexin-β; in one panel cells treated with THZ1 (200 nM) or SB203580 (1 μM) for 6 h
[3] = molecular target: Flag-tagged RARγ4-S7E (phospho-mimetic mutant) (human); assay: as above
[4] = molecular target: Flag-tagged RARγ4-S299E (phospho-mimetic mutant) (human); assay: as above
[5] = molecular target: Flag-tagged RARγ4 (retinoic acid receptor gamma isoform 4), wild type (human); assay: as above
[6] = molecular target: Flag-tagged RARγ4-R324G (RA-binding defective mutant) (human); assay: as above
[7] = molecular target: Flag-tagged RARγ4-S7A (phospho-defective mutant) (human); assay: as above

binding [1] | binding [2] | binding [3] | binding [4] | binding [5] | binding [6] | binding [7] | Molecule
binds | – | – | – | – | – | – | Flag-tagged RARγ4-S7A (phospho-defective mutant) (human)
– | binds | binds | binds | binds | binds | binds | vinexin-β (protein, UniProt O60504-2 1-329) MADGGSPFLGRRDFVYPSSTRDPSASNGGGSPARREEKKRKAARLKFDFQAQSPKELTLQKGDIVYIHKEVDKNWLEGEHHGRLGIFPANYVEVLPADEIPKPIKPPTYQVLEYGEAVAQYTFKGDLEVELSFRKGEHICLIRKVNENWYEGRITGTGRQGIFPASYVQVSREPRLRLCDDGPQLPTSPRLTAAARSARHPSSPSALRSPADPIDLGGQTSPRRTGFSFPTQEPRPQTQNLGTPGPALSHSRGPSHPLDLGTSSPNTSQIHWTPYRAMYQYRPQNEDELELREGDRVDVMQQCDDGWFVGVSRRTQKFGTFPGNYVAPV
